Assay [1] deals with Kv1.2 potassium channel, endogenous in nucleus accumbens shell (mouse (endogenous in NAcSh tissue)) (UniProt P63141). Put plainly: co-IP; NAcSh tissue lysates from brain slices (saline or cocaine 3 μM, 1 h; also tissue from in vivo cocaine-treated mice); immunoprecipitated with anti-Kv1.2 antibody, western blot with anti-Kv1.2 and anti-σ1. In general terms: A western blot detects proteins with antibodies after separation by electrophoresis.

Amino acid sequences for entries named in this document (tags omitted).
UniProt P63141: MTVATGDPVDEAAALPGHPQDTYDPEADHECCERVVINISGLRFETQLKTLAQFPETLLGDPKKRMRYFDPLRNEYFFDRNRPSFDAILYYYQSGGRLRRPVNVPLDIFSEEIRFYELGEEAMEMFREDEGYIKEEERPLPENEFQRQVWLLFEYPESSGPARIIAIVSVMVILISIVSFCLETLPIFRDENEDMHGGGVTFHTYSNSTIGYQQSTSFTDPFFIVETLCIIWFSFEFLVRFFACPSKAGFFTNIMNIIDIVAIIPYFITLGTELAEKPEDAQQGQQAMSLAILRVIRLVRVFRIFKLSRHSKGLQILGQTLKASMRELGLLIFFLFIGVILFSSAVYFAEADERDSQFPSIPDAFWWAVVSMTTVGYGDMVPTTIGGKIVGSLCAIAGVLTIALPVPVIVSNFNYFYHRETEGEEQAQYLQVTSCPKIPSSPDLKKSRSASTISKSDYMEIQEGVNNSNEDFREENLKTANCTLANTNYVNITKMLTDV
UniProt O55242: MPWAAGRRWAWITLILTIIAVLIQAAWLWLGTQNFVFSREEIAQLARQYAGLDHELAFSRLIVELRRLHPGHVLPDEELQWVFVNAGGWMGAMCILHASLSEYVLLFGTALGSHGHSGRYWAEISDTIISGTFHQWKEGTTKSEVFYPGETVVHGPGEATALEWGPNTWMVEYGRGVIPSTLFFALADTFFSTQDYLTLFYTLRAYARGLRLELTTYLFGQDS
UniProt P11881: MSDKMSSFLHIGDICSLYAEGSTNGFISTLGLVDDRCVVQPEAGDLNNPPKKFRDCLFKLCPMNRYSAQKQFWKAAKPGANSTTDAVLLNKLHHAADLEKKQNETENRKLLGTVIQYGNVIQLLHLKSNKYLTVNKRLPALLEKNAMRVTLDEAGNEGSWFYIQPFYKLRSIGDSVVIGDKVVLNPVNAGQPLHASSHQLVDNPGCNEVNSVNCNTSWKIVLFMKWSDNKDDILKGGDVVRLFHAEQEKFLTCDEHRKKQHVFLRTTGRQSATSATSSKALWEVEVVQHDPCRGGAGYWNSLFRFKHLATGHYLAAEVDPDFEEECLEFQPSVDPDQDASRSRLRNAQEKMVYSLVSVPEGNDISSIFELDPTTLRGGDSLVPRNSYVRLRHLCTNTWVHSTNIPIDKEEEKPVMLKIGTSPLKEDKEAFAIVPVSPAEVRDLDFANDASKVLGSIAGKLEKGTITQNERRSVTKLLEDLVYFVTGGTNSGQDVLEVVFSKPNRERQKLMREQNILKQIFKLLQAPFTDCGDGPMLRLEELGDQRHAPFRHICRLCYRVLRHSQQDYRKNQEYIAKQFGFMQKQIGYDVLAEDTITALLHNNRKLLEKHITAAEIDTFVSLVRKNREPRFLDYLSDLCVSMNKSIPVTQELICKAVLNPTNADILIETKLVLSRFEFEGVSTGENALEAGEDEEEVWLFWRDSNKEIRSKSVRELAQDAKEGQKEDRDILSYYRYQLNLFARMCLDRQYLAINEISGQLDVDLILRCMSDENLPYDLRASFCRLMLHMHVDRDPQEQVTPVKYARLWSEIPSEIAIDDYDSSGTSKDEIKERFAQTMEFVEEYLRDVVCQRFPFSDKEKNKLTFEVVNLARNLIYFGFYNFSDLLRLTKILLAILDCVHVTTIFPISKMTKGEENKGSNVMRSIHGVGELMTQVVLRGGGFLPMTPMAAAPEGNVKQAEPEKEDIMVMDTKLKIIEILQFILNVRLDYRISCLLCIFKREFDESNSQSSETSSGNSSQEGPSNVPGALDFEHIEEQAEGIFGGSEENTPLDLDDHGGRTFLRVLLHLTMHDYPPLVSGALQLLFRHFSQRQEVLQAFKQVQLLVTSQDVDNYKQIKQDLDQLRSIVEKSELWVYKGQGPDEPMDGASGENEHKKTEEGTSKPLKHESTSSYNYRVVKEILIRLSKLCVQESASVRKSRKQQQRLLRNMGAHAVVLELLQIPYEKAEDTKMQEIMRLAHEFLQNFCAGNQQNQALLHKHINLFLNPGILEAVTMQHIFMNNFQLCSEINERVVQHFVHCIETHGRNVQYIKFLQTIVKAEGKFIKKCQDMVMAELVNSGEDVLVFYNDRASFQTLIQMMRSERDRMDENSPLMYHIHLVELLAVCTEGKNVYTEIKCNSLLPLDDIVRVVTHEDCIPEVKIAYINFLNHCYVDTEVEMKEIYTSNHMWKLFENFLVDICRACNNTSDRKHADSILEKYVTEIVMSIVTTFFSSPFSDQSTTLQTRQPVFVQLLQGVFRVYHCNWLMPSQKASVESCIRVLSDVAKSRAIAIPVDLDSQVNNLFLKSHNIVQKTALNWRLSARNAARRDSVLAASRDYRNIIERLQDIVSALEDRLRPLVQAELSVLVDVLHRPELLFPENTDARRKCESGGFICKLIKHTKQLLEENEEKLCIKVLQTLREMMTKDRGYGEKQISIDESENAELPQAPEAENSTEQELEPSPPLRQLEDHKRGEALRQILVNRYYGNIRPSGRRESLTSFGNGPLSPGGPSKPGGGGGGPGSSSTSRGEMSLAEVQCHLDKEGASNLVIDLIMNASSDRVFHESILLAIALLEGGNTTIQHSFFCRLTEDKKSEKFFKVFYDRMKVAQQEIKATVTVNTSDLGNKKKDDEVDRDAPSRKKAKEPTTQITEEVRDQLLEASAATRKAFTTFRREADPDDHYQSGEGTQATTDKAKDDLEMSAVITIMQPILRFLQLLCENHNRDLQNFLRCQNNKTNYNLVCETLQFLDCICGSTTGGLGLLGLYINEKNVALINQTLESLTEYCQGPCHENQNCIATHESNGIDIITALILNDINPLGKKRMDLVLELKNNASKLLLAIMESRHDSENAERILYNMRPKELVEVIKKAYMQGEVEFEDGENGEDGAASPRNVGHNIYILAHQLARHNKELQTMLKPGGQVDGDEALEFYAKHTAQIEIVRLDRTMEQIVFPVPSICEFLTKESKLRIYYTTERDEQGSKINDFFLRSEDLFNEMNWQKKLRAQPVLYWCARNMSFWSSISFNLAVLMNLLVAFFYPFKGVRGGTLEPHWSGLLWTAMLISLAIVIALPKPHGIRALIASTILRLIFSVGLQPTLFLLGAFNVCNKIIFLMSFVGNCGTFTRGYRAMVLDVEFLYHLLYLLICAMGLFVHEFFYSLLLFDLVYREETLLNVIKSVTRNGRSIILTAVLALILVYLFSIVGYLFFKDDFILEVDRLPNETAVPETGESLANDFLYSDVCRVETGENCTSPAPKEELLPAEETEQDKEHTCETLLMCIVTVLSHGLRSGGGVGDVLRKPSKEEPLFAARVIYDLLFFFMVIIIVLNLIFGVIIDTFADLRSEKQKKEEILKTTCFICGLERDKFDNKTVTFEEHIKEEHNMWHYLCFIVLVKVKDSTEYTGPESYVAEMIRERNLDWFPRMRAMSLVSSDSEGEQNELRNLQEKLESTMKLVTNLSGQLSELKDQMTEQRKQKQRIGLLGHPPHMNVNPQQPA

The target in assay [2] is σ1-V5-His (wild-type sigma-1 receptor) (UniProt O55242). The assay is described as follows: co-IP; HEK293T cells stably overexpressing IP3R1 and wtσ1-V5 or Δσ1-V5 (control or tunicamycin 20 μg/mL, 2 h); immunoprecipitated with anti-V5 antibody, western blot with anti-IP3R1 and anti-V5.
The target of assay [3] is Kv1.2 expressed in HEK293T cells (pCMV6-Kv1.2) (UniProt P63141). The assay is described as follows: co-IP; HEK293T cells stably expressing Kv1.2, transfected with wtσ1-V5 or Δσ1-V5 (saline, cocaine 3 μM 1 h, BD1063 500 nM); lysates immunoprecipitated with anti-Kv1.2 antibody, western blot with anti-Kv1.2 and anti-V5.

Here are results for three substances from article PMC7042730.

These are yes or no findings as the source states them, for the method shown. Binding seen in cells or lysates may run through a third protein. Some entries that bind do so weakly or less than the wild type.

For the substance “sigma-1 receptor (σ1), endogenous in nucleus accumbens shell (from UniProt O55242 1-223)”, the binding result in assay [1] is “binds”. For “IP3 receptor type 1 (IP3R1) overexpressed in HEK293T cells (from UniProt P11881 1-2749)”, the binding result in assay [2] is “binds”. Consider “σ1-V5-His (wild-type sigma-1 receptor) (from UniProt O55242 1-223)”, for which the binding result in assay [3] is “binds”.
